# In paper PMC4022642:
# Results are given in words; binding and its absence hold for the method and conditions named. Binding seen in cells or lysates may run through a third protein. For some assays here: Binding can be weak; no strength is given. Where a sequence is shown, tags or fusion partners need not be part of it.
# Legend:
# [1] = target: T1, GST-human TRESK 256-271-Gln10His8 (human); assay: pull-down; GST-peptide-Gln10His8 fusions on Ni-NTA resin; mouse brain cytosol; SDS-PAGE; only the target purified
# T1 sequence: LVLGRLSYSIISNLDE
# [2] = target: T2, GST fusion of human TRESK fragment 232-280 (human) (UniProt Q7Z418); assay: pull-down; GST fusion proteins on glutathione agarose; mouse brain cytosol, 1 h at 4°C in solution A without imidazole; wash with 1 M NaCl; SDS-PAGE or SDTHS-PAGE, Coomassie; only the target purified
# T2 sequence: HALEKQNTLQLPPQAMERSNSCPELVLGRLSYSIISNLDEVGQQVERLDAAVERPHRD
# [3] = target: T3, GST fusion of human TRESK fragment 256-267 (human); assay: as above
# T3 sequence: LVLGRLSYSIIS
# [4] = target: T4, GST fusion of human TRESK fragment 247-280 (human) (UniProt Q7Z418); assay: as above
# T4 sequence: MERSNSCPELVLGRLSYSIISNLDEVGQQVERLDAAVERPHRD
# [5] = target: T5, GST fusion of human TRESK fragment 174-247 (human) (UniProt Q7Z418); assay: as above
# T5 sequence: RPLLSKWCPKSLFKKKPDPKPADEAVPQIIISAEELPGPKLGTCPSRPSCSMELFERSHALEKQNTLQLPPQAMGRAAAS
# [6] = target: T6, GST fusion of human TRESK fragment 174-231 (human) (UniProt Q7Z418); assay: as above
# T6 sequence: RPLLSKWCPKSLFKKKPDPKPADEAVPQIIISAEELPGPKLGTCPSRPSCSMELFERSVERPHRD
# [7] = target: T7, GST fusion of human TRESK fragment 256-271 (human); assay: as above
# T7 sequence: LVLGRLSYSIISNLDE
# [8] = target: T8, GST fusion of human TRESK fragment 204-280 (human) (UniProt Q7Z418); assay: as above
# T8 sequence: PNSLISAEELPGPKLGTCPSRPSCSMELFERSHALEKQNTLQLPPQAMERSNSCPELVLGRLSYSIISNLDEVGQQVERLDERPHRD
# [9] = target: T9, GST fusion of human TRESK cytoplasmic loop (amino acids 174-280) (human) (UniProt Q7Z418); assay: as above
# T9 sequence: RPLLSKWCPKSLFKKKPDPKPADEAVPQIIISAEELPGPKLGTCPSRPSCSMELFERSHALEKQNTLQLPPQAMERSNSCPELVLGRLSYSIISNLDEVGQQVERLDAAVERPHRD
# [10] = target: T10, GST fusion of human TRESK fragment 218-247 (human) (UniProt Q7Z418); assay: as above
# T10 sequence: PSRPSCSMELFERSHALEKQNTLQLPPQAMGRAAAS
# [11] = target: T11, GST fusion of human TRESK fragment 256-275 (human) (UniProt Q7Z418); assay: as above
# T11 sequence: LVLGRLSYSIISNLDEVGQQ
# [12] = target: T12, GST fusion of human TRESK fragment 256-280 (human) (UniProt Q7Z418); assay: as above
# T12 sequence: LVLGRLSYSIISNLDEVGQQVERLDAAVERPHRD
# [13] = target: T13, human TRESK-loop-His8 (amino acids 174-280) (human) (UniProt Q7Z418); assay: pull-down; human TRESK-loop-His8 on Ni-NTA resin, with or without PKA phosphorylation, preloaded with E. coli supernatant holding untagged 14-3-3η (not removed), then mouse brain cytosol; solution A with 50 mM NaF, PNPP, leupeptin, orthovanadate, cyclosporin A and FK506; SDS-PAGE; only the target purified
# T13 sequence: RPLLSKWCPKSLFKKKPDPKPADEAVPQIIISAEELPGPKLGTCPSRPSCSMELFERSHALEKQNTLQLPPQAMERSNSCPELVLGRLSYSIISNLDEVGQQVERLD
# [14] = target: T14, TRESK-loop-His8 (amino acids 185-292 of mouse TRESK) (mouse) (UniProt Q6VV64); assay: pull-down; mouse TRESK-loop-His8 on Ni-NTA resin; mouse brain cytosol; no BSA blocking, cytosol not depleted on resin; SDS-PAGE, Coomassie; only the target purified
# T14 sequence: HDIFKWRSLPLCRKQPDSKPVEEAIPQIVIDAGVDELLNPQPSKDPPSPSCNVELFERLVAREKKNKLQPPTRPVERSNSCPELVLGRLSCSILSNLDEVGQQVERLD
substance,measurement,setting,value
tubulin (mouse brain cytosol) (complex),binding,[1],binds
same,binding,[2],binds
same,binding,[3],binds
same,binding,[4],binds
same,binding,[5],binds
same,binding,[6],binds
same,binding,[7],binds
same,binding,[8],binds
same,binding,[9],binds
same,binding,[10],no binding
same,binding,[11],binds
same,binding,[12],binds
same,binding,[13],binds
same,binding,[14],binds
